# According to paper PMC12329970:
# By UniProt entry, the sequences of proteins in these tests, tags left out.
# UniProt P02340: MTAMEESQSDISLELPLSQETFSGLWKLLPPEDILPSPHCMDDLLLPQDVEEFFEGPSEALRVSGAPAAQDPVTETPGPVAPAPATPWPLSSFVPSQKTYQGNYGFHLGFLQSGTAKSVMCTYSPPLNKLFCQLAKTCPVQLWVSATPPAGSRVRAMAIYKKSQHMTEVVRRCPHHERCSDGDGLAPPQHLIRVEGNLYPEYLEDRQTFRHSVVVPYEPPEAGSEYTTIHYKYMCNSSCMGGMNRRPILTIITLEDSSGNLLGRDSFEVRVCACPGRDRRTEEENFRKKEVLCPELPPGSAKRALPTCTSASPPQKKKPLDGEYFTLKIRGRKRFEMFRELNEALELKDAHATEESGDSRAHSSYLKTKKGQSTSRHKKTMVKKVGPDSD
# No constants are given. Whether binding was seen depends on the method and setting. In cells and extracts the contact can be indirect. Some results given as binding are weak or reduced against the parent protein; the word gives no strength.
# Target: HA-P53 (UniProt P02340)
# Assay: co-IP; HEK-293T cells transiently transfected with pKH3-HA-P53; RIPA lysis buffer with protease inhibitors; HA or hnRNPK antibody, protein A/G agarose, 4 °C; four washes with lysis buffer; western blot
substance,measurement,value
hnRNPK (from UniProt P61978 1-463),binding,binds
